These are yes or no findings as the source states them, for the method shown. Binding seen in cells or lysates may run through a third protein. A result given as binding can be weak or reduced; the word gives no strength. Where a sequence is shown, tags or fusion partners need not be part of it.
molecular target: T1, Flag-TRIM31 (human) (UniProt Q9BZY9); test: co-IP; HEK293T cells transfected with Flag-TRIM31 (or its mutants) and Myc-tagged partners (or NLRP3 mutants); lysates immunoprecipitated with anti-Flag antibody (Fig. 3f,h) and immunoblotted; IP buffer 1.0% Nonidet P 40, 50 mM Tris-HCl pH 7.4, 50 mM EDTA, 150 mM NaCl
T1 sequence: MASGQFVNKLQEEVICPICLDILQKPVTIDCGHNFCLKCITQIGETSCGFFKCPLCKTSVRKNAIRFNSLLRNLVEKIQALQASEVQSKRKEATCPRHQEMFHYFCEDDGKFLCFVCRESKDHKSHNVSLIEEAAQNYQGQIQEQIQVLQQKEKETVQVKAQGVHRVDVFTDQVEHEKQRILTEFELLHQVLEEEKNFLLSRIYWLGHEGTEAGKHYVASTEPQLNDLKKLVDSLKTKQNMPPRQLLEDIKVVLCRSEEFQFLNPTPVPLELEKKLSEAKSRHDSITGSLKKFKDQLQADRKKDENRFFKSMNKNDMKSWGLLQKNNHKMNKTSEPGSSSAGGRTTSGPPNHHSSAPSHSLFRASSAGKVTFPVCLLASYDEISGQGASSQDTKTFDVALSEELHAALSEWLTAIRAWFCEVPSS

The chains behind the UniProt entries cited, without tags or fusion partners. Where a name states a change or a piece, a line headed by the entry shows the natural chain unless it says otherwise.
UniProt Q96P20: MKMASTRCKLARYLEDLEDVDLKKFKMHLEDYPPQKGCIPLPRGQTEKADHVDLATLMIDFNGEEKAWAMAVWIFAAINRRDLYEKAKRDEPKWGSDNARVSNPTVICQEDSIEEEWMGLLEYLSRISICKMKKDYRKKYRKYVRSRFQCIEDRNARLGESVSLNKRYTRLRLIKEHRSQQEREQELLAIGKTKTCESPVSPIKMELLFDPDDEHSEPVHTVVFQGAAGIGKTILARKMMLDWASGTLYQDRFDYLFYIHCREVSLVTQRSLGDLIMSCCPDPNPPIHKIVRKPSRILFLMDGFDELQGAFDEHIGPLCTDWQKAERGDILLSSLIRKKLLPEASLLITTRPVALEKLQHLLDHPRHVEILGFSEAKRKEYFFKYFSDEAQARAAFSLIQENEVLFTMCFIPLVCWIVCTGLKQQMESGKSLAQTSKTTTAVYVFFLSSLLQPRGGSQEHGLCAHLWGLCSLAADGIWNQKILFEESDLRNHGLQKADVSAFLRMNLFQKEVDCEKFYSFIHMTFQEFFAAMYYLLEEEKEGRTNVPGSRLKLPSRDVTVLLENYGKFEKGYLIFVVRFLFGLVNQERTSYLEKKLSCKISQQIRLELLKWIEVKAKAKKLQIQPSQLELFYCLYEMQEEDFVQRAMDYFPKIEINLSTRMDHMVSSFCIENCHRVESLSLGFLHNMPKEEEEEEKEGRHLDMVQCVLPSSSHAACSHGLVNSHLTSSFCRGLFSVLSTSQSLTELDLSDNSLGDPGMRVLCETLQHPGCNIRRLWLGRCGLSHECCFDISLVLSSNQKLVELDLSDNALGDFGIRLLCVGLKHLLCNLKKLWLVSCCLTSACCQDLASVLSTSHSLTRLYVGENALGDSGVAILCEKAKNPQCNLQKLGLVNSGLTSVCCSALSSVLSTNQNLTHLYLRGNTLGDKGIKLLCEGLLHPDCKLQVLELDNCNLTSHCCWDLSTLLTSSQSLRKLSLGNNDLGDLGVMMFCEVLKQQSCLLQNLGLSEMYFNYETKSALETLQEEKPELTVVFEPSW

Substance | binding
Myc-NLRP3 ΔPYD (domain or fragment) | no binding
Myc-NLRP3 ΔNACHT (from UniProt Q96P20) | binds
Myc-NLRP3 ΔLRR (domain or fragment) | binds

From article PMC5155141
